Data as given in PubChem BioAssay AID1259425 (University of Nebraska Medical Center, 2018)
The deposit covers about 14,000 reagents; shown is a random part of them. Not all columns of the deposit are shown. The record does not give: the time to read-out.

Screen: 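Seek colon cancer weak points whose silencing resembles KSR1 loss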 (primary screen)
Cells: HCT116 human colon cancer cells
Reagent: siRNA pool against human genes, 50 nM siRNA
Detection: 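mRNA of six signature genes measured together by branched-DNA assay after 50 nM siRNA pool, blank removed, divided by geometric mean of two housekeeping genes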
Reading the numbers: BNIP3L mRNA: higher = more BNIP3L transcript after knockdown; NDRG1 mRNA: higher = more NDRG1 transcript after knockdown

What did the screen give for NSUN3 (NOP2/Sun RNA methyltransferase 3)?
BNIP3L mRNA, set 1: 0.0641; NDRG1 mRNA, set 1: 0.224

Which result is listed for CALY (calcyon neuron specific vesicular protein)?
BNIP3L mRNA, set 1: 0.138; NDRG1 mRNA, set 1: 0.247

What did the screen give for NDRG4 (NDRG family member 4)?
BNIP3L mRNA, set 1: 0.226; NDRG1 mRNA, set 1: 0.285

What did the screen give for SLC10A2?
BNIP3L mRNA, set 1: 0.136; NDRG1 mRNA, set 1: 0.292

For NKRF (NFKB repressing factor), how do the results read?
BNIP3L mRNA, set 1: 0.0949; NDRG1 mRNA, set 1: 0.292

Ordered by “NDRG1 mRNA, set 1” (low to high): 2 of the entries above
SLC10A2 → BNIP3L mRNA, set 1: 0.136; NDRG1 mRNA, set 1: 0.292
NKRF (NFKB repressing factor) → BNIP3L mRNA, set 1: 0.0949; NDRG1 mRNA, set 1: 0.292

Next results:
What is on record for RXRG (retinoid X receptor gamma)?
BNIP3L mRNA, set 1: 0.0524; NDRG1 mRNA, set 1: 0.176

With A4GALT (alpha 1,4-galactosyltransferase (P1PK blood group)), what does the deposit list?
BNIP3L mRNA, set 1: 0.183; NDRG1 mRNA, set 1: 0.182

What did the screen give for RHBDF2 (rhomboid 5 homolog 2)?
BNIP3L mRNA, set 1: 0.166; NDRG1 mRNA, set 1: 0.121

How did the screen score CYRIA (CYFIP related Rac1 interactor A)?
BNIP3L mRNA, set 1: 0.21; NDRG1 mRNA, set 1: 0.173

With MYG1 (MYG1 exonuclease), what was measured?
BNIP3L mRNA, set 1: 0.253; NDRG1 mRNA, set 1: 0.461

For CASD1 (CAS1 domain sialic acid O acetyltransferase 1), what does the deposit list?
BNIP3L mRNA, set 1: 0.145; NDRG1 mRNA, set 1: 0.204

With BAG3 (BAG cochaperone 3), how do the results read?
BNIP3L mRNA, set 1: 0.139; NDRG1 mRNA, set 1: 0.157
